Source: the supplement of paper PMC11006884
The targets with a hit were mostly taken out for another list; the other results follow. Single values of this set are uncertain. The list shows a part of the results, in another mix than the full data.

Amino acid sequences for entries named in this document (tags omitted). A change or cut given only in a name is not applied to a line headed by its entry.
UniProt Q96CX2: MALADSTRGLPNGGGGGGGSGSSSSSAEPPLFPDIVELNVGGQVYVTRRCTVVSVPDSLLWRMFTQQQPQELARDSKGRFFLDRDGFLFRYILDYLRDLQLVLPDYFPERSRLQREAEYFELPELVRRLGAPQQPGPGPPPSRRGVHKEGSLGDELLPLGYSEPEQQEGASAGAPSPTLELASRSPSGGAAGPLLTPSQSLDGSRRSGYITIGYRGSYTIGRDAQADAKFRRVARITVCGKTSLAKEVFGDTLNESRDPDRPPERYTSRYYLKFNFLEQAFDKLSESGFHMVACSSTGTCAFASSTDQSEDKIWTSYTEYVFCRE
UniProt Q92545: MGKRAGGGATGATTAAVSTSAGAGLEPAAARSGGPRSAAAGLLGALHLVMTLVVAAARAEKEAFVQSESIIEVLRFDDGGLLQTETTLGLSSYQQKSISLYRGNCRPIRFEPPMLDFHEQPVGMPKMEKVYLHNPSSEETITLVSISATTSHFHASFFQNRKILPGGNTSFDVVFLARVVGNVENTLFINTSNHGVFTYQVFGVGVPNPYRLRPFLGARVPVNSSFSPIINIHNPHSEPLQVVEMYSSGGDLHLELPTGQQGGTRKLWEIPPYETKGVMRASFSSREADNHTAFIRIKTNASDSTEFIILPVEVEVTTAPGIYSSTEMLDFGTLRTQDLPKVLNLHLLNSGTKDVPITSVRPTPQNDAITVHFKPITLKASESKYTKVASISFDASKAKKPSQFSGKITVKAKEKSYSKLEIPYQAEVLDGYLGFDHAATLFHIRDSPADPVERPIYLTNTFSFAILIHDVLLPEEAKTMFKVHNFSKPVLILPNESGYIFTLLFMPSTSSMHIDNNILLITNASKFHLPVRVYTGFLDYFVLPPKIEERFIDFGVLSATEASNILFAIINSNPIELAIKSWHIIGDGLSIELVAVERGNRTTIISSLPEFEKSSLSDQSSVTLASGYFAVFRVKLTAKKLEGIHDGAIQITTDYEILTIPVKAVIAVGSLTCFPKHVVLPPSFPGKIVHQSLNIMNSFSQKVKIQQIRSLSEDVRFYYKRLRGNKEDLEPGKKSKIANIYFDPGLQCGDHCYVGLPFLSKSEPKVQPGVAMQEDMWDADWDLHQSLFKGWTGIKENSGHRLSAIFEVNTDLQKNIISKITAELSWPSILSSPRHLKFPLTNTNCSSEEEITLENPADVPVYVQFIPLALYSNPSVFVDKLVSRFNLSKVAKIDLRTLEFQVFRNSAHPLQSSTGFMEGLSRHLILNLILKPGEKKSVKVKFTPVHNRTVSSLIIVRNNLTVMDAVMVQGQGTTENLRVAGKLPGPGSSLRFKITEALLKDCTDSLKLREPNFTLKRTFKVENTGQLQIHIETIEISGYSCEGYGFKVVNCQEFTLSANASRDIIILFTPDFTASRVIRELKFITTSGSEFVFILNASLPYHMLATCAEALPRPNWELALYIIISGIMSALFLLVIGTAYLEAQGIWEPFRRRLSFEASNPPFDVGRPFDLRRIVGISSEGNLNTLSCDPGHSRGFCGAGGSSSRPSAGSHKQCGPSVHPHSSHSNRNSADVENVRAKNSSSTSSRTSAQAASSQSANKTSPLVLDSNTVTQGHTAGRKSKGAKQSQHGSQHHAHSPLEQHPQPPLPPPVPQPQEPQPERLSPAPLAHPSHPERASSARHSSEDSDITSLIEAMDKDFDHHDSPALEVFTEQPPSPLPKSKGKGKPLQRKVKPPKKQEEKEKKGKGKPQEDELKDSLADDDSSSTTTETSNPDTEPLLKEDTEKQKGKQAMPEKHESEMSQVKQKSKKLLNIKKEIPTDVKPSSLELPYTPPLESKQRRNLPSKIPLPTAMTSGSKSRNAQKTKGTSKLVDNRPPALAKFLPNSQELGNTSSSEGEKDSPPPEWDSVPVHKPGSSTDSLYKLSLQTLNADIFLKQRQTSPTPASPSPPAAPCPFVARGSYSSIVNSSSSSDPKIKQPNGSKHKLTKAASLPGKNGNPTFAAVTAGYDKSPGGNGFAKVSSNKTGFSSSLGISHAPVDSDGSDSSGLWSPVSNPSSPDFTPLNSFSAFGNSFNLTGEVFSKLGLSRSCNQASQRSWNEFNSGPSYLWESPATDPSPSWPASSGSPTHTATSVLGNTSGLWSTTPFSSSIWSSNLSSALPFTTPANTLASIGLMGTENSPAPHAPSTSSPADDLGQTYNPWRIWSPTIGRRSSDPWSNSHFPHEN
UniProt Q96C57: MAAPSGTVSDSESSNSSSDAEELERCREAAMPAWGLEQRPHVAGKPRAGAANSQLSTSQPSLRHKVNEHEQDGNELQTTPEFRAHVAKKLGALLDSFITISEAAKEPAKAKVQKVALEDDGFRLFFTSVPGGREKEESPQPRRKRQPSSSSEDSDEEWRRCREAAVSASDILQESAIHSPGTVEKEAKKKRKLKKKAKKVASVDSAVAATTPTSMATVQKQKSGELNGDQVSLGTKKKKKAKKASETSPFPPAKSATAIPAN
UniProt Q92616, whole entry, looked up: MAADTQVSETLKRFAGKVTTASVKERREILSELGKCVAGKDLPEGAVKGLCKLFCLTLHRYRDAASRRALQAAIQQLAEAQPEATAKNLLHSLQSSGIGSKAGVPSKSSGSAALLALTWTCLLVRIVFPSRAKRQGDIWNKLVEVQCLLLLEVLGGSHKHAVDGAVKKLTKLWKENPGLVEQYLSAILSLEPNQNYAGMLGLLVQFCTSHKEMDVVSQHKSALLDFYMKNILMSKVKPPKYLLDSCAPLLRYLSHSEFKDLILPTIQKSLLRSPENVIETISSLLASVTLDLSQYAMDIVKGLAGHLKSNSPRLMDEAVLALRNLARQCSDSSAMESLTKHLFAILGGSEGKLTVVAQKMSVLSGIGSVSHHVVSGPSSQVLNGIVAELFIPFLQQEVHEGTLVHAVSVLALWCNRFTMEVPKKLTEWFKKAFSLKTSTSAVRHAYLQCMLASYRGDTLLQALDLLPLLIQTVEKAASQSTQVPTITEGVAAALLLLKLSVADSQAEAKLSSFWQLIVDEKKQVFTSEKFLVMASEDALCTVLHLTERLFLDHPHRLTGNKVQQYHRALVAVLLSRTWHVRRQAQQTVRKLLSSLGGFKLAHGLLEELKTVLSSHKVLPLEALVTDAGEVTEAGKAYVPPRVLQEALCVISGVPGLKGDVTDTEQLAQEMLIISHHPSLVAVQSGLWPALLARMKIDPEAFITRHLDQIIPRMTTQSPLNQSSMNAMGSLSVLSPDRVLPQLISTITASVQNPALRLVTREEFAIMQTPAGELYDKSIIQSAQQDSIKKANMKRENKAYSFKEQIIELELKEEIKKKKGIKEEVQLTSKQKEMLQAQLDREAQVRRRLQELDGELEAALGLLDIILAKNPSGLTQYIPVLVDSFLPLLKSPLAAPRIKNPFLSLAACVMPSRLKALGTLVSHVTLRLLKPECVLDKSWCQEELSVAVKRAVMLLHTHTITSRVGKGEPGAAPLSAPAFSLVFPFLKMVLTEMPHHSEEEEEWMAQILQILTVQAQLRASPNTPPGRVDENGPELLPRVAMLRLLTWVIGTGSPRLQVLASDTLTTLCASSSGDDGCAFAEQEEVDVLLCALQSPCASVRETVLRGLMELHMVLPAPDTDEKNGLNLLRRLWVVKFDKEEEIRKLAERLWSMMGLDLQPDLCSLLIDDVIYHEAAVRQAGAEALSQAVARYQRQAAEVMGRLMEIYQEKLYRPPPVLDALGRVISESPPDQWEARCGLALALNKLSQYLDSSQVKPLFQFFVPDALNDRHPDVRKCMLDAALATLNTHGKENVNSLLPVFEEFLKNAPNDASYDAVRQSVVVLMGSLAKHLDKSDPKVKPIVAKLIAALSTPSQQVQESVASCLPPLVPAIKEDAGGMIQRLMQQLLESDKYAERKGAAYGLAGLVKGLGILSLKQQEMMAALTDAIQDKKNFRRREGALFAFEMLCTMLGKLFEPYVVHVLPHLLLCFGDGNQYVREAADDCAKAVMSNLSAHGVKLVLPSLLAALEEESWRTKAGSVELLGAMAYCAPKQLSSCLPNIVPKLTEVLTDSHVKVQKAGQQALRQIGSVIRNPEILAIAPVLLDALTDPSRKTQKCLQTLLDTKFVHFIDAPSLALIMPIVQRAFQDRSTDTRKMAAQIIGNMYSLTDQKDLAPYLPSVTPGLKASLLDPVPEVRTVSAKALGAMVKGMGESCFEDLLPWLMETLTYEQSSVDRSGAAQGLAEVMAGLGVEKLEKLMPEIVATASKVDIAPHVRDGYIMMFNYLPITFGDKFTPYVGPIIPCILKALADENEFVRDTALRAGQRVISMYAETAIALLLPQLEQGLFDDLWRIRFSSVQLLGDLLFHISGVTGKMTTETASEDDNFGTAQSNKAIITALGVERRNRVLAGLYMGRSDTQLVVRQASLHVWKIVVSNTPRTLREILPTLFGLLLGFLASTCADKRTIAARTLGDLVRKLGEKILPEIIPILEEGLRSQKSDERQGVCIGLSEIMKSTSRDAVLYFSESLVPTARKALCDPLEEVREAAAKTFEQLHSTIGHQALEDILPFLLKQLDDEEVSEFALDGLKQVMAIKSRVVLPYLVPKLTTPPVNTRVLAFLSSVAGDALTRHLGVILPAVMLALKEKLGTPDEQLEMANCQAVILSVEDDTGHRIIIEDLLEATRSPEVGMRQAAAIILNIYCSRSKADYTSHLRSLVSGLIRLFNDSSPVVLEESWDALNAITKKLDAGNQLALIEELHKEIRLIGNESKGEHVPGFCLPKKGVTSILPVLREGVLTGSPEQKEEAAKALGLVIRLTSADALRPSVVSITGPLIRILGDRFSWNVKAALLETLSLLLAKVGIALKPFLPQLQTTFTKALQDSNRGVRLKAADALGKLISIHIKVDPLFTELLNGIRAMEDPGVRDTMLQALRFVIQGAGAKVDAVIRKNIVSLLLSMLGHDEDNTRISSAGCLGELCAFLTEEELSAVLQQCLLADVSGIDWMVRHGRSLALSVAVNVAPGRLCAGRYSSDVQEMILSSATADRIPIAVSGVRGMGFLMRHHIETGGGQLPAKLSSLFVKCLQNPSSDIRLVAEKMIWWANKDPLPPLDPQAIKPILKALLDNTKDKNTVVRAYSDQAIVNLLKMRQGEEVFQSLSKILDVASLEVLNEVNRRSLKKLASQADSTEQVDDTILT
UniProt Q96HA7: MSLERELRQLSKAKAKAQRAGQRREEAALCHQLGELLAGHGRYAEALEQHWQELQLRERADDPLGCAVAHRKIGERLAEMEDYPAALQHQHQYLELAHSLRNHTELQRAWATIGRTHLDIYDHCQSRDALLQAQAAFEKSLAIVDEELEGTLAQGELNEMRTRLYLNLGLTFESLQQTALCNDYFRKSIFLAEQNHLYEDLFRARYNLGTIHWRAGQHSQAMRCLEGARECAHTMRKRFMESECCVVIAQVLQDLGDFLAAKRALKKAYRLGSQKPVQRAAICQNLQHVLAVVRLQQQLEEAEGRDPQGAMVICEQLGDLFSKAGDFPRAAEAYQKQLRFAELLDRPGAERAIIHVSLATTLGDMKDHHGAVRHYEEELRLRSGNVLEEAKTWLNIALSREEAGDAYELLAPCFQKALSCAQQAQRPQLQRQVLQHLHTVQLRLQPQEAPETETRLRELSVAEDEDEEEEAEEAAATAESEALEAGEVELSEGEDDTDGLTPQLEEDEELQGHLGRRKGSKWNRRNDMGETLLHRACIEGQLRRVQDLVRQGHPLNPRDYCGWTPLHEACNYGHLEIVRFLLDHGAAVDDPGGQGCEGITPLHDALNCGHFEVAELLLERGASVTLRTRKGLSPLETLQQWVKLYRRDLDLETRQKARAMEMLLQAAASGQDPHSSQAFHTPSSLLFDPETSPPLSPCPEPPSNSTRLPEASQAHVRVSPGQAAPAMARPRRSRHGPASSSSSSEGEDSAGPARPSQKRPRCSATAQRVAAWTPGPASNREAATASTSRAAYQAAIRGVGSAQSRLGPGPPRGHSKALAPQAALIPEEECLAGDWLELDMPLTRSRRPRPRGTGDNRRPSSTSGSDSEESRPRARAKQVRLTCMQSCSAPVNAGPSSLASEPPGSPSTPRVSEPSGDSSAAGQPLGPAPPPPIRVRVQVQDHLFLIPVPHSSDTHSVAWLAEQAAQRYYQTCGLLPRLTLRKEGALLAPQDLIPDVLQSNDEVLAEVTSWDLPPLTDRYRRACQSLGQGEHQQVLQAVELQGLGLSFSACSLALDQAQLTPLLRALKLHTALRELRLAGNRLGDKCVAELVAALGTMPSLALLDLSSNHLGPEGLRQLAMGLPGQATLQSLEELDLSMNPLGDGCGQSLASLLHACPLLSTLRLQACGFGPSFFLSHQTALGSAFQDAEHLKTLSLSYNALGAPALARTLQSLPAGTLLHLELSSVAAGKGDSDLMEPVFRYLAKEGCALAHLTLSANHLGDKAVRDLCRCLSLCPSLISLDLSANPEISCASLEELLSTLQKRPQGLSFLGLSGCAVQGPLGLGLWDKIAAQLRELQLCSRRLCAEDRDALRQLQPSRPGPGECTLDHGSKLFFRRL

compound: COC(=O)/C=C/c1ccccc1 [methyl cinnamate]; experiment: log2 ratio of iodoacetamide-alkyne labeling of the cysteine site, DMSO over compound (competition); higher = stronger covalent engagement of the cysteine by the compound, active = 1 or more; settings: 500 µM; treatment time 1 h; system: HEK293T cell lysate
In short: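 After 1 h at ambient temperature with vehicle or electrophile (500 µM), HEK293T lysate (2 mg/mL) was labelled for 1 h with iodoacetamide alkyne and clicked to sCIP-TMT reagents. Pooled samples were trypsin-digested overnight at 37 °C, streptavidin-enriched, acid-eluted and analysed by Orbitrap Eclipse LC-MS/MS with FAIMS, then quantified in FragPipe over three replicates with duplicate channels. A cysteine's log2 competition ratio is its mean control-channel over mean compound-channel reporter intensity. Cysteines quantified in only one replicate were not included.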

log2 ratio of iodoacetamide-alkyne labeling, inactive:
SMARCC1 C119 (UniProt Q92922) 0.0907, Sirt1 C380 (UniProt Q96EB6) 0.512, DPF2 C306 (UniProt Q92785) 0.00141, MED12 C1006 (UniProt Q93074) 0.296, KCTD12 C50 (UniProt Q96CX2) 0.228, TMEM131 C1214 (UniProt Q92545) -0.154, ARHGEF2 C335 (UniProt Q92974) 0.0596, UniProt Q96GS4_C176 0.314, UniProt Q96C57_C161 0.571, UBE2E3 C81 (UniProt Q969T4) 0.409, WBP2 C80 (UniProt Q969T9) 0.161, LIN37 C119 (UniProt Q96GY3) 0.083, UniProt Q96BD8_C10 0.186, TNPO1 C683 (UniProt Q92973) 0.152, EDC3 C137 (UniProt Q96F86) 0.491, UBXN4 C186 (UniProt Q92575) 0.457, NDRG1 C289 (UniProt Q92597) 0.342, UniProt Q92616_C1535 -0.0175, TONSL C762 (UniProt Q96HA7) 0.328, UniProt Q96EK5_C371 0.0029, KAT5 C11 (UniProt Q92993) 0.239, RNF25 C360 (UniProt Q96BH1) 0.616, DHX38 C20 (UniProt Q92620) 0.345, RAD50 C133 (UniProt Q92878) 0.204, TBRG4 C246 (UniProt Q969Z0) -0.13, TNPO1 C103 (UniProt Q92973) 0.27, USP9X C1212 (UniProt Q93008) 0.15, GBF1 C613 (UniProt Q92538) 0.419, GBF1 C1414 (UniProt Q92538) -0.0373, UniProt Q92841_C447 -0.0626, LPP C262 (UniProt Q93052) 0.283, DAZAP1 C39 (UniProt Q96EP5) -0.0785, MRPL24 C190 (UniProt Q96A35) 0.193, HSPH1 C650 (UniProt Q92598) 0.0731, UniProt Q92615_C590 0.272, HSPH1 C34 (UniProt Q92598) 0.132, NUP205 C1715 (UniProt Q92621) 0.139
